These are yes or no findings as the source states them, for the method shown. In cells and extracts the contact can be indirect. Some results given as binding are weak or reduced against the parent protein; the word gives no strength.

Chains of the proteins cited; added tags and fusions are not shown.
UniProt P61586: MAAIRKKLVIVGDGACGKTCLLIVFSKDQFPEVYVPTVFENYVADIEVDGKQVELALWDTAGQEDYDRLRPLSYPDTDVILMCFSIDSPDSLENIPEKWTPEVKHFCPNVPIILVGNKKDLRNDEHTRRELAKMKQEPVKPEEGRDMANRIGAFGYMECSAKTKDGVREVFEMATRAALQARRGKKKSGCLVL
UniProt Q13233: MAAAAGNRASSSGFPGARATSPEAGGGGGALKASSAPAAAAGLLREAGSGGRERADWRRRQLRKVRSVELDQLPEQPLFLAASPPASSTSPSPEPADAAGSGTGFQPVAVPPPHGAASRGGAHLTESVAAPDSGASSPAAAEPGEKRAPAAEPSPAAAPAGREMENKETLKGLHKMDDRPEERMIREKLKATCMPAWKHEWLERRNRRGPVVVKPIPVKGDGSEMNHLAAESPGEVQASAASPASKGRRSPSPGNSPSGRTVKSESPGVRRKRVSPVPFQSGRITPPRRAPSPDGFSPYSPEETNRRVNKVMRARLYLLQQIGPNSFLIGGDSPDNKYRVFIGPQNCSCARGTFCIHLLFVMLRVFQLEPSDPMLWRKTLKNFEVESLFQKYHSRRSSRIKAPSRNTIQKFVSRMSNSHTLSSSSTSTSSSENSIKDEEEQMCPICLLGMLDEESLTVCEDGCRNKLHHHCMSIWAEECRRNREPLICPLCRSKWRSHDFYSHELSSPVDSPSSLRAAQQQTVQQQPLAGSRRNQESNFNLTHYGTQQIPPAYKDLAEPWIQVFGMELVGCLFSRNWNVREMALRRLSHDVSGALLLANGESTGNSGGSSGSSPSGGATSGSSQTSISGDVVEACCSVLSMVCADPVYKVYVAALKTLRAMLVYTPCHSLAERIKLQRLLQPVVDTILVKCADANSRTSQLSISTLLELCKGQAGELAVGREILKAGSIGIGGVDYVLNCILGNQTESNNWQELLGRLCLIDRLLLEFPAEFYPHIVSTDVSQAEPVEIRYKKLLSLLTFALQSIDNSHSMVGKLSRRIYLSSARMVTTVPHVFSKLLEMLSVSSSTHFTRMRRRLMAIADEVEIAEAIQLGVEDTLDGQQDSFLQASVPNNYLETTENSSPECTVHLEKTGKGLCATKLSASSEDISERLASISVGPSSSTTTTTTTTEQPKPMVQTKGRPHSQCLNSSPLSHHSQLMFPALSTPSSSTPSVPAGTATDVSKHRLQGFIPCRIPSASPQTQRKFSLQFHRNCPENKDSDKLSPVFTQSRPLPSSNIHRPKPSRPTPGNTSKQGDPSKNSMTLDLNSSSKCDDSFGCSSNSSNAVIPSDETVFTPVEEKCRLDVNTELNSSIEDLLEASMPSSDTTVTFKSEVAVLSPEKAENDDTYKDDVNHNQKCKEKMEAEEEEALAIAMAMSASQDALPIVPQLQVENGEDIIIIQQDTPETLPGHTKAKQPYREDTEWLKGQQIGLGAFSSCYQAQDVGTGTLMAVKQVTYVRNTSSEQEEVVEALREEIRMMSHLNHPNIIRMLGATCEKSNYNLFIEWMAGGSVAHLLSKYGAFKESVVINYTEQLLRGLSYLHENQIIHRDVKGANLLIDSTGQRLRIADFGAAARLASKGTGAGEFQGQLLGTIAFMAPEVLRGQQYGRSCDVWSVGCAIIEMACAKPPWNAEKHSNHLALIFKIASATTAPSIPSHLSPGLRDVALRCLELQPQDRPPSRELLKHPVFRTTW

Assay [1] deals with RHOA-3×Flag (human (from the RefSeq entry NM_001664; not said in words)) (UniProt P61586). Description: co-IP; HEK293T cells co-transfected with MAP3K1-3×HA and RHOA-3×Flag; 48 h after transfection lysed in modified RIPA buffer; anti-Flag or anti-HA magnetic beads overnight at 4°C; blot with anti-HA or anti-FLAG; ratio of Co-IP to IP band intensity.
Assay [2] deals with RHOA-LgBiT-N (RhoA fused to LgBiT) (human (from the RefSeq entry NM_001664; not said in words)) (UniProt P61586). Nature of the assay: split reporter; NanoBiT in HEK293T cells co-transfected with SmBiT and LgBiT fusion plasmids (500 ng DNA in all, 24-well plate); 24 h after transfection medium replaced by OPTI-MEM, substrate added, signal read for 30 min; negative control: SmBiT-MAP3K1 plasmid alone.

On to “MAP3K1-3×HA (wild type) (from UniProt Q13233 1-1512) (enzyme)”, for which, in assay [1], the binding entry is given as “binds”. On to “MAP3K1-SmBiT-C (wild-type MAP3K1 fused to SmBiT) (from UniProt Q13233 1-1512) (enzyme)”, for which the binding entry in assay [2] was “binds”.

Values taken from PMC8927045, “MAP3K1 Variant Causes Hyperactivation of Wnt4/β-Catenin/FOXL2 Signaling Contributing to 46,XY Disorders/Differences of Sex Development” (Frontiers in Genetics, 2022).
